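The test is a small-molecule microarray: each compound is printed twice on a reactive slide, and binding shows as fluorescence of the labelled oligonucleotide after washing. The data file lists only calls. An earlier report of the laboratory on the PreQ1, TPP and SAM-II riboswitches (doi:10.1038/s41467-019-09493-3) used 1 µM RNA for 2 h and required a mean Z-score above 3 (spot signal-to-noise against the whole library), a score well above that on a control array, and duplicate spots agreeing (coefficient of variation under 100); it then also set aside compounds that hit other targets, which this list keeps. The cut-offs behind this list may differ. A missing hit is not proof of no binding, and a hit is not a measured affinity.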 Key: yes = hit, no = tested without a hit. The compounds are a random part of those screened. A target missing from an entry has no call listed here.

Oligonucleotides screened, 5′ to 3′:
SAM-II: SAM-II riboswitch RNA pseudoknot, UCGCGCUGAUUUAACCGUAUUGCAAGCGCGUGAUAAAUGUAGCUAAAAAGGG. About 200 hits among about 21,000 compounds.
TPP: TPP riboswitch RNA three-way junction, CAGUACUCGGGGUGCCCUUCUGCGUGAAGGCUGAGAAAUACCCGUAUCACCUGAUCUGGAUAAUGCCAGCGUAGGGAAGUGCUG. About 160 hits among about 24,000 compounds.
PreQ1: PreQ1 riboswitch RNA pseudoknot, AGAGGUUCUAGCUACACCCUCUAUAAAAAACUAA. From B. subtilis. About 170 hits among about 24,000 compounds.

{"structure": "Cc1nnc(NC(C)C)c2c1nnn2Cc1ccccc1Cl", "TPP": "no", "PreQ1": "yes"}
{"structure": "N#CC1=C(N)Oc2c(c(=O)sc3ccccc23)C1c1ccc(F)c(F)c1", "stereo": "centres undefined", "SAM-II": "no", "TPP": "no", "PreQ1": "no"}
{"structure": "CCC[C@H]1CN(c2ccc(C#N)cn2)C[C@@H]1NC(=O)CCO", "SAM-II": "no", "TPP": "no", "PreQ1": "no"}
{"structure": "CCc1ncc(C(=O)N[C@H]2CC[C@H]2NC(C)C)cn1", "SAM-II": "no", "TPP": "no", "PreQ1": "no"}
{"structure": "CSc1nc2c(c(Nc3ccc(C(C)=O)cc3)n1)CCC2", "TPP": "no", "PreQ1": "no"}
{"structure": "Cc1nc(N2CC[C@@H](c3ccc4c(c3)OCO4)[C@H](O)C2)c2nc(C)oc2n1", "SAM-II": "no", "TPP": "no", "PreQ1": "no"}
{"structure": "CCc1ccc(NC2=NS(=O)(=O)C(c3ccc(OC)cc3)=C2C)cc1", "TPP": "no", "PreQ1": "no"}
{"structure": "CCN1C(=O)C2(C(C#N)=C(N)OC(C)=C2C(=O)OCc2ccccc2)c2ccccc21", "stereo": "centres undefined", "SAM-II": "no", "TPP": "no", "PreQ1": "no"}
{"structure": "Cc1cc(C)n(CC(C)n2ccnc2-c2cc3n(n2)CCNC3)n1", "stereo": "centres undefined", "SAM-II": "no", "TPP": "no", "PreQ1": "no"}
{"structure": "Cn1nnnc1SCCNC1CCN(c2ncnc3[nH]cnc23)CC1", "SAM-II": "no", "TPP": "no", "PreQ1": "no"}
{"structure": "CC1(C)NC(=O)N(CC(O)COc2ccccc2[N+](=O)[O-])C1=O", "stereo": "centres undefined", "SAM-II": "no", "TPP": "no", "PreQ1": "no"}
{"structure": "COc1ccc2oc(-c3ccc(C)c(N)c3)nc2c1", "SAM-II": "no", "TPP": "no", "PreQ1": "no"}
{"structure": "Nc1c(C(=O)Nc2ccc(Oc3ccccc3)cc2)nnn1Cc1ccccc1", "SAM-II": "no", "TPP": "no", "PreQ1": "no"}
{"structure": "Cc1cc(-c2cn3cc(C(=O)N4CCCNCC4)nc3c(=O)n2C)c(C)o1", "SAM-II": "no", "TPP": "no", "PreQ1": "no"}
{"structure": "CCCCOCC1CC2(CC(C)(c3csc(Nc4ccccc4Cl)n3)OC2=O)C(=O)O1", "stereo": "centres undefined", "SAM-II": "no", "TPP": "no", "PreQ1": "no"}
{"structure": "N#CC1=C(N)Oc2c(oc(CO)cc2=O)C1c1cccs1", "stereo": "centres undefined", "SAM-II": "no", "TPP": "no", "PreQ1": "no"}
{"structure": "CCCn1c(NC)nc2c1c(=O)n(C)c(=O)n2C", "SAM-II": "no", "TPP": "no", "PreQ1": "no"}
{"structure": "COc1ccccc1NC1=C(C(N)=O)S(=O)(=O)c2ccccc21", "TPP": "no", "PreQ1": "no"}
{"structure": "CCCCNCc1ccc(OCc2ccc3c(c2)n(C)c(=O)n3C)c(OC)c1", "TPP": "no", "PreQ1": "no"}
{"structure": "O=C(NCc1ccco1)N1CC[C@@H](c2ccc3ccccc3c2)[C@H](O)C1", "SAM-II": "no", "TPP": "no", "PreQ1": "no"}
{"structure": "CCCCCOc1ccc(N2C(=O)C(C)CNC2=S)cc1", "stereo": "centres undefined", "SAM-II": "no", "TPP": "no", "PreQ1": "no"}
{"structure": "CC(O)CNC(=O)COc1ccccc1", "stereo": "centres undefined", "SAM-II": "no", "TPP": "no", "PreQ1": "no"}
{"structure": "COCCC1(CO)CCCN(C(=O)CCN2CCCCCC2=O)C1", "stereo": "centres undefined", "SAM-II": "no", "TPP": "no", "PreQ1": "no"}
{"structure": "CNC(=O)[C@@H]1C[C@@H](N)CN1C(=O)c1cnc(N)nc1-c1ccccc1", "SAM-II": "no", "TPP": "no", "PreQ1": "no"}
{"structure": "OC[C@]12COc3ccccc3[C@H]1CN(c1ncnc3[nH]ccc13)C2", "SAM-II": "no", "TPP": "no", "PreQ1": "no"}
{"structure": "Cc1nn(C)c(C)c1CCC(=O)N1CCC2(CC1)OCCCC2O", "stereo": "centres undefined", "SAM-II": "no", "TPP": "no", "PreQ1": "no"}
{"structure": "CCCCOC(=O)c1cccnc1", "SAM-II": "no", "TPP": "no", "PreQ1": "no"}
{"structure": "CC[C@@]1(O)CCN(C(=O)c2coc(CN3CCOCC3)c2)C[C@H]1O", "SAM-II": "no", "TPP": "no", "PreQ1": "no"}
{"structure": "CCNc1nc(Cl)nc(Oc2ccc(=O)n(-c3ccccc3)n2)n1", "SAM-II": "no", "TPP": "no", "PreQ1": "no"}
{"structure": "CC(C)=CCC1(CO)CCCN(C(=O)c2ccc(-c3cc[nH]n3)cc2)C1", "stereo": "centres undefined", "SAM-II": "no", "TPP": "no", "PreQ1": "no"}
{"structure": "Nc1c(C(=O)Nc2cccc(F)c2)sc2nc(-c3ccncc3)ccc12", "SAM-II": "no", "TPP": "no", "PreQ1": "no"}
{"structure": "COc1cccc(CCNc2cc(CN)nc(C)n2)c1OC", "SAM-II": "no", "TPP": "no", "PreQ1": "no"}
{"structure": "CC1CCCN(c2nc(N)cc(=O)[nH]2)C1", "stereo": "centres undefined", "SAM-II": "no", "TPP": "no", "PreQ1": "no"}

The last 2 entries again:

{"structure": "COc1cccc(CCNc2cc(CN)nc(C)n2)c1OC", "SAM-II": "no", "TPP": "no", "PreQ1": "no"}
{"structure": "CC1CCCN(c2nc(N)cc(=O)[nH]2)C1", "stereo": "centres undefined", "SAM-II": "no", "TPP": "no", "PreQ1": "no"}

From ROBIN, a set of small-molecule microarray screens (doi:10.1002/anie.202211358).